# Test results from article PMC7694386.
# Sequences of proteins named here, by UniProt entry; tags and fusion partners are left off. A change or cut given only in a name is not applied to a line headed by its entry.
# UniProt O95817: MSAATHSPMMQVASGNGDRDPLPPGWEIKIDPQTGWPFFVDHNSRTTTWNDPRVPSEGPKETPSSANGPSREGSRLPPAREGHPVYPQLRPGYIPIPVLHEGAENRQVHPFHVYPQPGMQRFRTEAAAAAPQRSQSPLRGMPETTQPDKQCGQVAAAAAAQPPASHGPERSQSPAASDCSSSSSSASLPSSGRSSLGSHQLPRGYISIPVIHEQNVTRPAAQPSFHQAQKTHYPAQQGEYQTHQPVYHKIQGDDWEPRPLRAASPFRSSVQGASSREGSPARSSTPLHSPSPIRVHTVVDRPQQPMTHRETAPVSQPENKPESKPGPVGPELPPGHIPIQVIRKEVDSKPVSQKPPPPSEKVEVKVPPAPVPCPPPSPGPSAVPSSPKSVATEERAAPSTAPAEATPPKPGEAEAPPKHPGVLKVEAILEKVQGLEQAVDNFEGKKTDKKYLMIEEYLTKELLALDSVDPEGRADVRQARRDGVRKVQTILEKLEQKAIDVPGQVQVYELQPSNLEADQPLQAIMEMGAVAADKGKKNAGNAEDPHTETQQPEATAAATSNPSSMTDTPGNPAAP
# UniProt Q96F07: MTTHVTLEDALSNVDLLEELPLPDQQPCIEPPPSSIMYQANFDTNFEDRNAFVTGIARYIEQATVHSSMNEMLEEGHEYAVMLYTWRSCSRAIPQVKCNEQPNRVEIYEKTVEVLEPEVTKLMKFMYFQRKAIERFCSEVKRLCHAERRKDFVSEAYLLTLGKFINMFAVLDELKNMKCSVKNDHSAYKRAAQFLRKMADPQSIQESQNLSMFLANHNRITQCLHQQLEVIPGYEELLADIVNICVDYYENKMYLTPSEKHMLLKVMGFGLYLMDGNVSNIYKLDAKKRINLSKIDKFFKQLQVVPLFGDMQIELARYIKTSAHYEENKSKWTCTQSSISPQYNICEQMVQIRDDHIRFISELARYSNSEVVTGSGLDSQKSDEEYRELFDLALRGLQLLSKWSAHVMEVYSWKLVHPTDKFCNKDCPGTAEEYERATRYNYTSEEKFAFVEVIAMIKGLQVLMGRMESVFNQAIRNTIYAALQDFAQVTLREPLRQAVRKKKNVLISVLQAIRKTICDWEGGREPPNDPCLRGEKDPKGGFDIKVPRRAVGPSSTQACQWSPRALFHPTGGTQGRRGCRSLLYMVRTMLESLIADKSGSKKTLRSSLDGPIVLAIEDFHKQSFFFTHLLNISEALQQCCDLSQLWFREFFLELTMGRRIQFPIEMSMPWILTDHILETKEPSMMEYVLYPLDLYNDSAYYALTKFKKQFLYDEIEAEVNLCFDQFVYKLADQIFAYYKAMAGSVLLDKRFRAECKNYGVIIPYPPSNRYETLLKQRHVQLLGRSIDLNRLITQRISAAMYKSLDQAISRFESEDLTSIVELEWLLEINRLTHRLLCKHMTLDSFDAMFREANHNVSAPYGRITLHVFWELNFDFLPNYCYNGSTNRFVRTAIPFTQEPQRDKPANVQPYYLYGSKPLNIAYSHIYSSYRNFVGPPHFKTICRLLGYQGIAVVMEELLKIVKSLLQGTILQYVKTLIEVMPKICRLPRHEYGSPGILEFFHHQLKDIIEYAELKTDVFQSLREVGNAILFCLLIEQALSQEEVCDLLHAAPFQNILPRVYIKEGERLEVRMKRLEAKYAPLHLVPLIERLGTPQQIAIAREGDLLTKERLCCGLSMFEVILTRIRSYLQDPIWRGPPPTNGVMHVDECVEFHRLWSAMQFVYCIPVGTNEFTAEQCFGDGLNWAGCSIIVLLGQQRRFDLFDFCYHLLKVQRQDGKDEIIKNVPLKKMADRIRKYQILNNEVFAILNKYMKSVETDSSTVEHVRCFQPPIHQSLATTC
# UniProt Q9Y2J4: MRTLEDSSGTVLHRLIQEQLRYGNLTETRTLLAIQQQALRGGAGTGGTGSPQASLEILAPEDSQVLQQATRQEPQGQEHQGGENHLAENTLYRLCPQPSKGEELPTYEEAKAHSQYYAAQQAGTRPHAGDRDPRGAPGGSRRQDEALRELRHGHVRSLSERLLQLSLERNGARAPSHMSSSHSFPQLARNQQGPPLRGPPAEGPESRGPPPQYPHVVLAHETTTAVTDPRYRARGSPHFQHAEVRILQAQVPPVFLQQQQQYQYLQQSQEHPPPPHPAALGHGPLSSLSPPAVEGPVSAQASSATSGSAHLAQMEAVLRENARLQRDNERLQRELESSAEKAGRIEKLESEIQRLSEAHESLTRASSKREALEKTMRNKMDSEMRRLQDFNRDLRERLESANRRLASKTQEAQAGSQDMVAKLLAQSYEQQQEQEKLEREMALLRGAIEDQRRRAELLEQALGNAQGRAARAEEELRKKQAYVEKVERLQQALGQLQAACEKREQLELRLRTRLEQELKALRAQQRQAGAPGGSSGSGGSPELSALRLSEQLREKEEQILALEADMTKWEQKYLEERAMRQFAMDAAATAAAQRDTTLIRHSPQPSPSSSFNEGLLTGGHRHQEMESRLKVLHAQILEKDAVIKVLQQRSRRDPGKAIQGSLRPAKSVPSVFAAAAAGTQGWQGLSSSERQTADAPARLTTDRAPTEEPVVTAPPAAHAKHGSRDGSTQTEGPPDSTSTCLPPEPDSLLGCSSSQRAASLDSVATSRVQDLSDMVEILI
# UniProt P53618: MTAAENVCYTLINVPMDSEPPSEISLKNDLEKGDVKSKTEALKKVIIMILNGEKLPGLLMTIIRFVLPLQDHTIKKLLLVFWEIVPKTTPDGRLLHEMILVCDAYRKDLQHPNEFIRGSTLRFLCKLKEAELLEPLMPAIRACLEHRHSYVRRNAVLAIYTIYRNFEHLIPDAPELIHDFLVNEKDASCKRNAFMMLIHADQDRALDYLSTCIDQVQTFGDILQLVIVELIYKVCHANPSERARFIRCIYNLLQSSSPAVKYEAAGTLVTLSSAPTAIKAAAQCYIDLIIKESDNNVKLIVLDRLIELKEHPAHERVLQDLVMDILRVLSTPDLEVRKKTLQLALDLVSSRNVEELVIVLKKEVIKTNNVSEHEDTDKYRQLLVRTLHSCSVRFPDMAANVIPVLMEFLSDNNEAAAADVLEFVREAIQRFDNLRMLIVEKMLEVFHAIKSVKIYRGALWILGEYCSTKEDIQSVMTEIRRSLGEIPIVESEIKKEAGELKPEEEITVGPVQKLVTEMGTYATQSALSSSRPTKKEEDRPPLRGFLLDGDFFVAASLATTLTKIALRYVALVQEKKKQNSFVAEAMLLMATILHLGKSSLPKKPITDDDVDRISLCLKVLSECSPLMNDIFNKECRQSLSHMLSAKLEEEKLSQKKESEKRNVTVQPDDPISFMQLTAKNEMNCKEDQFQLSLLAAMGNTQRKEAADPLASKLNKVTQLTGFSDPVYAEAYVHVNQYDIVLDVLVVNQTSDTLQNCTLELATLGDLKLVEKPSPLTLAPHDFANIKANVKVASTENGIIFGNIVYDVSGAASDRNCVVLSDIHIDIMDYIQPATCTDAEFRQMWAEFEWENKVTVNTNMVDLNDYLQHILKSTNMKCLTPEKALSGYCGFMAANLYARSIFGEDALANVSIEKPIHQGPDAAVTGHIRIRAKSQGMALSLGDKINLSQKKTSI
# UniProt P28070: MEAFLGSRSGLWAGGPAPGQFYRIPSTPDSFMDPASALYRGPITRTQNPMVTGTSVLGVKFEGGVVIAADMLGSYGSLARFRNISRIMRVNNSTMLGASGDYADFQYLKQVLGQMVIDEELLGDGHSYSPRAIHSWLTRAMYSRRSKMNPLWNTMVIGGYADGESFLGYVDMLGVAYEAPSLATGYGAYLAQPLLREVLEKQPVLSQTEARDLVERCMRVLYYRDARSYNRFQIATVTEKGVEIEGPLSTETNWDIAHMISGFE
# UniProt P35998: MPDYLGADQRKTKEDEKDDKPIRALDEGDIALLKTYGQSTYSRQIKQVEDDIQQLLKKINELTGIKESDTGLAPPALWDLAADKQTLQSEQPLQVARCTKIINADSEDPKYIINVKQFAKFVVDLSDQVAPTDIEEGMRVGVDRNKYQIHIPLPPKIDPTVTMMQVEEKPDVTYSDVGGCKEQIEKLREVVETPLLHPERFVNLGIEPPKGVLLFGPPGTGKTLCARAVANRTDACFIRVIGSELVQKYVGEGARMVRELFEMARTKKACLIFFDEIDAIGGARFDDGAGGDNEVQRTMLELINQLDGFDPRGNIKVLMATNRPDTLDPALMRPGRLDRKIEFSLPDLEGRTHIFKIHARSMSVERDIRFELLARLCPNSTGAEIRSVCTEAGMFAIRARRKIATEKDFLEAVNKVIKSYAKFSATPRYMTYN
# UniProt Q13283: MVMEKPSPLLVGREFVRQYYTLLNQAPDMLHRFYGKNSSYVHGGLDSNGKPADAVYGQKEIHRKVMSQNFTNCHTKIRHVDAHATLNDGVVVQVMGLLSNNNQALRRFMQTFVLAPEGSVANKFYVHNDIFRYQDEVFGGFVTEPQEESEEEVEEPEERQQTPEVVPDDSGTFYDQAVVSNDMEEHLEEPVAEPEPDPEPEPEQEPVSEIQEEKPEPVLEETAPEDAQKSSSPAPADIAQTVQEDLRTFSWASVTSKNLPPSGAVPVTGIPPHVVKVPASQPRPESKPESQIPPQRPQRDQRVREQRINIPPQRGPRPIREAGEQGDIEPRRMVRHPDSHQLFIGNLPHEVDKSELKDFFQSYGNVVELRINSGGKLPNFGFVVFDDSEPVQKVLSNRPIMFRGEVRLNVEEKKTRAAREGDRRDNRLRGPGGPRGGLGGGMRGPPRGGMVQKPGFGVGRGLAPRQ
# UniProt P08758: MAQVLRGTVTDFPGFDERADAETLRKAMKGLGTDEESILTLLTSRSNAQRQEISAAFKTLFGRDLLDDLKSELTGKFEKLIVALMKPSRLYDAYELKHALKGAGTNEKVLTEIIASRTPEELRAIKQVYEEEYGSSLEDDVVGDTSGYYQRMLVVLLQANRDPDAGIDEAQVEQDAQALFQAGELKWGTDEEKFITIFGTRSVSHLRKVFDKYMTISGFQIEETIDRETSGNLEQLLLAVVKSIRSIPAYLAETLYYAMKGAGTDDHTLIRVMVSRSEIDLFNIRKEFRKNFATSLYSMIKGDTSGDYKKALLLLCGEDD
# UniProt P60228: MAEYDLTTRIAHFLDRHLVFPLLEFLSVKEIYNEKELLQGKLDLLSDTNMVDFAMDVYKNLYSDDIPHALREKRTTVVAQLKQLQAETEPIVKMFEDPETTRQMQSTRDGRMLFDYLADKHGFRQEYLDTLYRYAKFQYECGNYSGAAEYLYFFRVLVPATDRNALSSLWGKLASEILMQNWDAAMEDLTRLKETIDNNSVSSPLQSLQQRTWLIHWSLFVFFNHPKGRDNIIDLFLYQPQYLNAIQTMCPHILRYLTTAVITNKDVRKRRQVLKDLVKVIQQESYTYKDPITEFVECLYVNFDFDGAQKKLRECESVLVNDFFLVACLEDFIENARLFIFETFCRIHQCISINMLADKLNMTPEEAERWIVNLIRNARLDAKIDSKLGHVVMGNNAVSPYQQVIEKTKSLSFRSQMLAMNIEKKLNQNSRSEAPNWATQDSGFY
# UniProt Q13409: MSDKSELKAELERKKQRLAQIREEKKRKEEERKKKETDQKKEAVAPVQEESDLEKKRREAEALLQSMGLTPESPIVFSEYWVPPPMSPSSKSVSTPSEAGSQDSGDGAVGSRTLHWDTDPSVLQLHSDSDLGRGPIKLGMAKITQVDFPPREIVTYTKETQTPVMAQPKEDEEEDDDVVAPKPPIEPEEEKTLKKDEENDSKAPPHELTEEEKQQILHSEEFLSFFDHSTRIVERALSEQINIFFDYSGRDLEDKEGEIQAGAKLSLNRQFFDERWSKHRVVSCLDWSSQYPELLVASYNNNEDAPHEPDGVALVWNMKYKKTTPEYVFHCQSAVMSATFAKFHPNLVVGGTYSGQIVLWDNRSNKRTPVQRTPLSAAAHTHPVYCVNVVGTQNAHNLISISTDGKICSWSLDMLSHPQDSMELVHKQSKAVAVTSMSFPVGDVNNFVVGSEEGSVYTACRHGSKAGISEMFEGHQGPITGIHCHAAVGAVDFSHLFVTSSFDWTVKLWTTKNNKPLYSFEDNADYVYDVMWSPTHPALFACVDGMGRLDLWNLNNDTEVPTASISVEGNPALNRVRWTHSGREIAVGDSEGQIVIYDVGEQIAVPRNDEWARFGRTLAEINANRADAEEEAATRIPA
# UniProt P14635: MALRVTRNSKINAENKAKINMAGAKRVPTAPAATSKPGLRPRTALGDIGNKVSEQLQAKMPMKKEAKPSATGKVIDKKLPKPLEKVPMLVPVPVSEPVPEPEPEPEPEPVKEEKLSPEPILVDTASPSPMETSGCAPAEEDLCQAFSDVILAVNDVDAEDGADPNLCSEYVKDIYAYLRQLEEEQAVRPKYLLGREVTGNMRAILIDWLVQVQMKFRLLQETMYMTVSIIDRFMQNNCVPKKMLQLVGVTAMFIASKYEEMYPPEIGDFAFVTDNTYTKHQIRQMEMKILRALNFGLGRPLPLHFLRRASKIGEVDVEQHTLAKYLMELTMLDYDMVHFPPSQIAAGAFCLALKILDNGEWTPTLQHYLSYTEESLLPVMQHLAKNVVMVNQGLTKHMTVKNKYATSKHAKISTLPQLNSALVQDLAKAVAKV
# Results are given in words; binding and its absence hold for the method and conditions named. In cells and extracts the contact can be indirect. These calls come from enrichment with a bait or labelling near it, and not all partners need be listed.
# B1: WDR11 (protein, UniProt Q9BZH6 1-1224)
# chain: MLPYTVNFKVSARTLTGALNAHNKAAVDWGWQGLIAYGCHSLVVVIDSITAQTLQVLEKHKADVVKVKWARENYHHNIGSPYCLRLASADVNGKIIVWDVAAGVAQCEIQEHAKPIQDVQWLWNQDASRDLLLAIHPPNYIVLWNADTGTKLWKKSYADNILSFSFDPFDPSHLTLLTSEGIVFISDFSPSKPPSGPGKKVYISSPHSSPAHNKLATATGAKKALNKVKILITQEKPSAEFITLNDCLQLAYLPSKRNHMLLLYPREILILDLEVNQTVGVIAIERTGVPFLQVIPCFQRDGLFCLHENGCITLRVRRSYNNIFTTSNEEPDPDPVQELTYDLRSQCDAIRVTKTVRPFSMVCCPVNENAAALVVSDGRVMIWELKSAVCNRNSRNSSSGVSPLYSPVSFCGIPVGVLQNKLPDLSLDNMIGQSAIAGEEHPRGSILREVHLKFLLTGLLSGLPAPQFAIRMCPPLTTKNIKMYQPLLAVGTSNGSVLVYHLTSGLLHKELSIHSCEVKGIEWTSLTSFLSFATSTPNNMGLVRNELQLVDLPTGRSIAFRGERGNDESAIEMIKVSHLKQYLAVVFRDKPLELWDVRTCTLLREMSKNFPTITALEWSPSHNLKSLRKKQLATREAMARQTVVSDTELSIVESSVISLLQEAESKSELSQNISAREHFVFTDIDGQVYHLTVEGNSVKDSARIPPDGSMGSITCIAWKGDTLVLGDMDGNLNFWDLKGRVSRGIPTHRSWVRKIRFAPGKGNQKLIAMYNDGAEVWDTKEVQMVSSLRSGRNVTFRILDVDWCTSDKVILASDDGCIRVLEMSMKSACFRMDEQELTEPVWCPYLLVPRASLALKAFLLHQPWNGQYSLDISHVDYPENEEIKNLLQEQLNSLSNDIKKLLLDPEFTLLQRCLLVSRLYGDESELHFWTVAAHYLHSLSQEKSASTTAPKEAAPRDKLSNPLDICYDVLCENAYFQKFQLERVNLQEVKRSTYDHTRKCTDQLLLLGQTDRAVQLLLETSADNQHYYCDSLKACLVTTVTSSGPSQSTIKLVATNMIANGKLAEGVQLLCLIDKAADACRYLQTYGEWNRAAWLAKVRLNPEECADVLRRWVDHLCSPQVNQKSKALLVLLSLGCFFSVAETLHSMRYFDRAALFVEACLKYGAFEVTEDTEKLITAIYADYARSLKNLGFKQGAVLFASKAGAAGKDLLNELESPKEEPIEE
# B2: N-terminal kinase-like protein (protein, UniProt Q96KG9 1-808)
# chain: MWFFARDPVRDFPFELIPEPPEGGLPGPWALHRGRKKATGSPVSIFVYDVKPGAEEQTQVAKAAFKRFKTLRHPNILAYIDGLETEKCLHVVTEAVTPLGIYLKARVEAGGLKELEISWGLHQIVKALSFLVNDCSLIHNNVCMAAVFVDRAGEWKLGGLDYMYSAQGNGGGPPRKGIPELEQYDPPELADSSGRVVREKWSADMWRLGCLIWEVFNGPLPRAAALRNPGKIPKTLVPHYCELVGANPKVRPNPARFLQNCRAPGGFMSNRFVETNLFLEEIQIKEPAEKQKFFQELSKSLDAFPEDFCRHKVLPQLLTAFEFGNAGAVVLTPLFKVGKFLSAEEYQQKIIPVVVKMFSSTDRAMRIRLLQQMEQFIQYLDEPTVNTQIFPHVVHGFLDTNPAIREQTVKSMLLLAPKLNEANLNVELMKHFARLQAKDEQGPIRCNTTVCLGKIGSYLSASTRHRVLTSAFSRATRDPFAPSRVAGVLGFAATHNLYSMNDCAQKILPVLCGLTVDPEKSVRDQAFKAIRSFLSKLESVSEDPTQLEEVEKDVHAASSPGMGGAAASWAGWAVTGVSSLTSKLIRSHPTTAPTETNIPQRPTPEGVPAPAPTPVPATPTTSGHWETQEEDKDTAEDSSTADRWDDEDWGSLEQEAESVLAQQDDWSTGGQVSRASQVSNSDHKSSKSPESDWSSWEAEGSWEQGWQEPSSQEPPPDGTRLASEYNWGGPESSDKGDPFATLSARPSTQPRPDSWGEDNWEGLETDSRQVKAELARKKREERRREMEAKRAERKVAKGPMKLGARKLD
# B3: BAG4 (protein, UniProt O95429 1-457)
# chain: MSALRRSGYGPSDGPSYGRYYGPGGGDVPVHPPPPLYPLRPEPPQPPISWRVRGGGPAETTWLGEGGGGDGYYPSGGAWPEPGRAGGSHQEQPPYPSYNSNYWNSTARSRAPYPSTYPVRPELQGQSLNSYTNGAYGPTYPPGPGANTASYSGAYYAPGYTQTSYSTEVPSTYRSSGNSPTPVSRWIYPQQDCQTEAPPLRGQVPGYPPSQNPGMTLPHYPYGDGNRSVPQSGPTVRPQEDAWASPGAYGMGGRYPWPSSAPSAPPGNLYMTESTSPWPSSGSPQSPPSPPVQQPKDSSYPYSQSDQSMNRHNFPCSVHQYESSGTVNNDDSDLLDSQVQYSAEPQLYGNATSDHPNNQDQSSSLPEECVPSDESTPPSIKKIIHVLEKVQYLEQEVEEFVGKKTDKAYWLLEEMLTKELLELDSVETGGQDSVRQARKEAVCKIQAILEKLEKKGL
# B4: BAG family molecular chaperone regulator 5 (protein, UniProt Q9UL15 1-447)
# chain: MDMGNQHPSISRLQEIQKEVKSVEQQVIGFSGLSDDKNYKKLERILTKQLFEIDSVDTEGKGDIQQARKRAAQETERLLKELEQNANHPHRIEIQNIFEEAQSLVREKIVPFYNGGNCVTDEFEEGIQDIILRLTHVKTGGKISLRKARYHTLTKICAVQEIIEDCMKKQPSLPLSEDAHPSVAKINFVMCEVNKARGVLIALLMGVNNNETCRHLSCVLSGLIADLDALDVCGRTEIRNYRREVVEDINKLLKYLDLEEEADTTKAFDLRQNHSILKIEKVLKRMREIKNELLQAQNPSELYLSSKTELQGLIGQLDEVSLEKNPCIREARRRAVIEVQTLITYIDLKEALEKRKLFACEEHPSHKAVWNVLGNLSEIQGEVLSFDGNRTDKNYIRLEELLTKQLLALDAVDPQGEEKCKAARKQAVRLAQNILSYLDLKSDEWEY
# Target: BAG3 (BCL-2-associated athanogene 3) (human (endogenous in HEK293T)) (UniProt O95817)
# Test: affinity purification with mass spectrometry; endogenous BAG3 immunoprecipitated with anti-BAG3 antibody and Protein A/G magnetic beads from HEK293T lysate; cells treated with DMSO (basal) or 10 µM MG132 for 6 h; IgG IP (MG132_IgG) as control; label-free quantification, three biological replicates
row,binding,Molecule
1,binds,B1
2,binds,B2
3,binds,B3
4,binds,B4

# Target: BAG3 (BCL-2-associated athanogene 3) (human (endogenous in HEK293T)) (UniProt O95817)
# Test: as above
# Remark: another data set of the same source
row,binding,Molecule
1,binds,CYFIP2 (from UniProt Q96F07 1-1278)
2,binds,AMOTL2 (from UniProt Q9Y2J4 1-779)
3,binds,COPB1 (from UniProt P53618 1-953)
4,binds,PSMB4 (from UniProt P28070)
5,binds,PSMC2 (from UniProt P35998 1-433)
6,binds,Ras GTPase-activating protein-binding protein 1 (from UniProt Q13283 1-466)
7,binds,ANXA5 (from UniProt P08758 1-320)
8,binds,Staphylococcal nuclease domain-containing protein 1 (from UniProt Q7KZF4 1-910)
9,binds,EIF3E (from UniProt P60228 1-445)
10,binds,dynein intermediate chain DYNC1I2 (from UniProt Q13409 1-638)
11,binds,CCNB1 (from UniProt P14635 1-433)
